Record: PubChem BioAssay AID1508587 (Peter MacCallum Cancer Centre, 2020)
The whole screen tested about 1,600 reagents; shown is a random part of them. In the full data, 623 (39%) were called active. 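Calls are for each duplex; lactate ratios contain extreme outliers.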

- Assay: 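Knockdowns that add to vemurafenib's cut in melanoma glycolysis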 (follow-up of hits)
- Cells: human WM266.4 melanoma cells with a BRAF V600 mutation
- Reagent: single siRNA against human genes, 25 nM
- Time to read-out: 96 h
- Challenge: vemurafenib 300 nM (about IC25), given 48 h after transfection for 48 h
- Measured: 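Per-cell lactate from absorbance divided by DAPI nucleus counts, compared with and without vemurafenib, relative to non-targeting siRNA, mean of 2 replicates; nuclear counts also give cell number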
- Scale: lactate per cell, drug vs no drug: higher = less drug-induced drop in lactate per cell; lactate per cell with vemurafenib: higher = more lactate per cell under drug; lactate per cell without drug: higher = more lactate per cell without drug; cell growth with vemurafenib and cell growth without drug: higher = more cell growth over 48 h
- Hit rule: 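a duplex is active when its lactate-per-cell ratio with versus without drug falls under 0.55, i.e. 2 SD below non-targeting; a gene is confirmed if 2 or more of 4 duplexes pass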

| target | PubChem SID | lactate per cell, drug vs no drug | lactate per cell with vemurafenib | lactate per cell without drug | cell growth with vemurafenib | cell growth without drug | Call |
| --- | --- | --- | --- | --- | --- | --- | --- |
| THRSP (thyroid hormone responsive) | SID134283125 | 0.78 | 6.26 | 5.47 | -0.07 | -0.03 | inactive |
| THRSP (thyroid hormone responsive) | SID134283126 | 0.63 | 2.69 | 2.92 | 0.17 | -0.05 | inactive |
| THRSP (thyroid hormone responsive) | SID134283127 | 0.47 | 0.95 | 1.4 | -0.04 | -0.05 | active |
| THRSP (thyroid hormone responsive) | SID134283128 | 0.71 | 1.86 | 1.92 | 0.03 | 0 | inactive |
| SLC25A35 | SID134306749 | 0.58 | 2.61 | 2.77 | 0.13 | 0.07 | inactive |
| SLC25A35 | SID134306750 | 0.74 | 0.99 | 0.82 | 0.45 | 0.72 | inactive |
| SLC25A35 | SID134306751 | 0.78 | 1.23 | 0.99 | -0.1 | -0.01 | inactive |
| SLC25A35 | SID134306752 | 0.62 | 1.29 | 1.31 | 0.46 | 0.32 | inactive |
| USP2 (ubiquitin specific peptidase 2) | SID134235685 | 0.14 | 0.16 | 0.7 | 0.16 | 0.3 | active |
| USP2 (ubiquitin specific peptidase 2) | SID134235686 | 0.63 | 3.31 | 3.1 | 0.16 | 0.11 | inactive |
| USP2 (ubiquitin specific peptidase 2) | SID134235688 | 0.77 | 1.87 | 1.44 | -0.06 | 0.19 | inactive |
| USP2 (ubiquitin specific peptidase 2) | SID135611992 | 0.74 | 1.22 | 0.97 | 1.14 | 1.13 | inactive |
| TRPT1 (tRNA phosphotransferase 1) | SID134265089 | 0.48 | 1.4 | 1.81 | 0.19 | 0.23 | active |
| TRPT1 (tRNA phosphotransferase 1) | SID134265091 | 0.7 | 0.82 | 0.74 | 0.43 | 0.86 | inactive |
| TRPT1 (tRNA phosphotransferase 1) | SID134265092 | 0.72 | 1.75 | 1.54 | 0.19 | 0.12 | inactive |
| TRPT1 (tRNA phosphotransferase 1) | SID135614499 | 0.9 | 1.82 | 1.27 | -0.24 | 0.33 | inactive |
| AKAP12 (A-kinase anchoring protein 12) | SID134249037 | 0.64 | 1.47 | 1.57 | 0.08 | 0.23 | inactive |
| AKAP12 (A-kinase anchoring protein 12) | SID134249038 | 0.53 | 1.1 | 1.37 | 0.58 | 0.49 | active |
| AKAP12 (A-kinase anchoring protein 12) | SID134249039 | 0.55 | 1.07 | 1.27 | 0.64 | 0.68 | inactive |
| AKAP12 (A-kinase anchoring protein 12) | SID134249040 | 0.54 | 0.76 | 0.91 | 0.13 | 0.28 | active |
| KCNK6 (potassium two pore domain channel subfamily K member 6) | SID134236457 | 0.38 | 1.54 | 2.5 | 0.4 | 0.1 | active |
| KCNK6 (potassium two pore domain channel subfamily K member 6) | SID134236458 | 0.48 | 1.09 | 1.34 | 0.8 | 0.56 | active |
| KCNK6 (potassium two pore domain channel subfamily K member 6) | SID134236459 | 0.87 | 2.68 | 1.84 | 0.36 | 0.43 | inactive |
| KCNK6 (potassium two pore domain channel subfamily K member 6) | SID134236460 | 0.59 | 1.06 | 1.07 | 0.22 | 0.5 | inactive |
| OR8U9 (olfactory receptor family 8 subfamily U member 9) | SID135618339 | 0.6 | 0.91 | 1.04 | 0.6 | 0.88 | inactive |
| OR8U9 (olfactory receptor family 8 subfamily U member 9) | SID135618340 | 0.65 | 1.62 | 1.68 | -0.04 | 0.06 | inactive |
| OR8U9 (olfactory receptor family 8 subfamily U member 9) | SID135618341 | 0.53 | 0.46 | 0.58 | 0.95 | 1.11 | active |
| OR8U9 (olfactory receptor family 8 subfamily U member 9) | SID135618342 | 1 | 1.24 | 0.98 | -0.09 | -0.07 | inactive |
| CCDC3 (coiled-coil domain containing 3) | SID134280813 | 0.64 | 1.37 | 1.54 | 0.4 | 0.18 | inactive |
| CCDC3 (coiled-coil domain containing 3) | SID134280814 | 0.75 | 1 | 0.9 | 0.2 | 0.41 | inactive |
| CCDC3 (coiled-coil domain containing 3) | SID134280815 | 0.77 | 1.13 | 1.01 | 0.46 | 0.6 | inactive |
| CCDC3 (coiled-coil domain containing 3) | SID134280816 | 0.64 | 1.63 | 1.73 | 0.7 | 0.29 | inactive |
| ITPR2 (inositol 1,4,5-trisphosphate receptor type 2) | SID134236229 | 0.51 | 0.77 | 0.9 | 0.52 | 0.62 | active |
| ITPR2 (inositol 1,4,5-trisphosphate receptor type 2) | SID134236230 | 0.49 | 1.14 | 1.36 | 0.29 | 0.25 | active |
| ITPR2 (inositol 1,4,5-trisphosphate receptor type 2) | SID134236231 | 0.72 | 1.68 | 1.48 | 0.22 | 0.45 | inactive |
| ITPR2 (inositol 1,4,5-trisphosphate receptor type 2) | SID134236232 | 0.52 | 1.09 | 1.24 | 0.6 | 0.54 | active |
| PDK3 (pyruvate dehydrogenase kinase 3) | SID56477067 | 0.43 | 1.26 | 1.92 | 0.37 | 0.24 | active |
| PDK3 (pyruvate dehydrogenase kinase 3) | SID56477068 | 0.47 | 0.5 | 0.68 | 0.52 | 1.1 | active |
| PDK3 (pyruvate dehydrogenase kinase 3) | SID56477069 | 0.63 | 0.75 | 0.75 | 0.41 | 0.96 | inactive |
| PDK3 (pyruvate dehydrogenase kinase 3) | SID56477070 | 0.94 | 1.35 | 0.91 | 0.23 | 0.7 | inactive |
| RHO (rhodopsin) | SID134234333 | 0.58 | 1.05 | 1.15 | 0.91 | 0.85 | inactive |
| RHO (rhodopsin) | SID134234334 | 0.6 | 1.66 | 1.77 | 0.56 | 0.41 | inactive |
| RHO (rhodopsin) | SID134234335 | 0.64 | 2.04 | 2.04 | 0.11 | 0.07 | inactive |
| RHO (rhodopsin) | SID134234336 | 0.44 | 0.5 | 0.7 | 0.56 | 0.85 | active |
| HSPB6 (heat shock protein family B (small) member 6) | SID134245689 | 0.48 | 1.23 | 1.62 | 0.64 | 0.34 | active |
| HSPB6 (heat shock protein family B (small) member 6) | SID134245690 | 0.53 | 1.54 | 1.81 | 0.1 | 0.02 | active |
| HSPB6 (heat shock protein family B (small) member 6) | SID134245691 | 0.54 | 3 | 3.37 | 0.06 | -0.05 | active |
| HSPB6 (heat shock protein family B (small) member 6) | SID134245692 | 0.43 | 0.38 | 0.55 | 0.47 | 0.47 | active |
| PRSS16 (serine protease 16) | SID134235461 | 0.4 | 1.52 | 2.23 | 0.64 | 0.18 | active |
| PRSS16 (serine protease 16) | SID134235462 | 0.55 | 1.29 | 1.38 | 0.69 | 0.79 | inactive |
| PRSS16 (serine protease 16) | SID134235463 | 0.46 | 1.13 | 1.44 | 0.78 | 0.33 | active |
| PRSS16 (serine protease 16) | SID134235464 | 0.57 | 0.73 | 0.74 | 1.01 | 1.45 | inactive |
| JRK (Jrk helix-turn-helix protein) | SID134253077 | 0.85 | 2.62 | 2.4 | 0.14 | 0.18 | inactive |
| JRK (Jrk helix-turn-helix protein) | SID134253078 | 0.62 | 2.04 | 2.38 | 0.08 | 0.05 | inactive |
| JRK (Jrk helix-turn-helix protein) | SID134253079 | 0.84 | 2.19 | 1.87 | 0.29 | 0.28 | inactive |
| JRK (Jrk helix-turn-helix protein) | SID134253080 | 0.62 | 0.72 | 0.83 | 0.59 | 0.93 | inactive |
| AARS1 (alanyl-tRNA synthetase 1) | SID134253293 | 0.34 | 1.19 | 2.21 | 0.33 | 0.1 | active |
| AARS1 (alanyl-tRNA synthetase 1) | SID134253294 | 0.49 | 1.6 | 1.92 | -0.01 | 0.03 | active |
| AARS1 (alanyl-tRNA synthetase 1) | SID134253295 | 0.34 | 0.53 | 0.9 | 0.17 | 0.3 | active |
| AARS1 (alanyl-tRNA synthetase 1) | SID134253296 | 0.54 | 1.18 | 1.27 | 0.92 | 0.65 | active |
| IL17RD (interleukin 17 receptor D) | SID134241249 | 0.67 | 2.46 | 2.4 | -0.01 | 0.02 | inactive |
| IL17RD (interleukin 17 receptor D) | SID134241250 | 0.84 | 2.1 | 1.64 | 0.01 | 0.13 | inactive |
| IL17RD (interleukin 17 receptor D) | SID134241251 | 0.58 | 1.27 | 1.44 | -0.03 | 0.15 | inactive |
| IL17RD (interleukin 17 receptor D) | SID134241252 | 0.74 | 1.43 | 1.25 | 0.21 | 0.22 | inactive |

Entries above whose gene name begins with T or t (8):
| target | PubChem SID | lactate per cell, drug vs no drug | lactate per cell with vemurafenib | lactate per cell without drug | cell growth with vemurafenib | cell growth without drug | Call |
| --- | --- | --- | --- | --- | --- | --- | --- |
| THRSP (thyroid hormone responsive) | SID134283125 | 0.78 | 6.26 | 5.47 | -0.07 | -0.03 | inactive |
| THRSP (thyroid hormone responsive) | SID134283126 | 0.63 | 2.69 | 2.92 | 0.17 | -0.05 | inactive |
| THRSP (thyroid hormone responsive) | SID134283127 | 0.47 | 0.95 | 1.4 | -0.04 | -0.05 | active |
| THRSP (thyroid hormone responsive) | SID134283128 | 0.71 | 1.86 | 1.92 | 0.03 | 0 | inactive |
| TRPT1 (tRNA phosphotransferase 1) | SID134265089 | 0.48 | 1.4 | 1.81 | 0.19 | 0.23 | active |
| TRPT1 (tRNA phosphotransferase 1) | SID134265091 | 0.7 | 0.82 | 0.74 | 0.43 | 0.86 | inactive |
| TRPT1 (tRNA phosphotransferase 1) | SID134265092 | 0.72 | 1.75 | 1.54 | 0.19 | 0.12 | inactive |
| TRPT1 (tRNA phosphotransferase 1) | SID135614499 | 0.9 | 1.82 | 1.27 | -0.24 | 0.33 | inactive |
